{
  "source": "paper PMC9178013",
  "binders": {"B1": {"name": "LUC7L3 (protein, UniProt O95232 1-432)", "chain": "MISAAQLLDELMGRDRNLAPDEKRSNVRWDHESVCKYYLCGFCPAELFTNTRSDLGPCEKIHDENLRKQYEKSSRFMKVGYERDFLRYLQSLLAEVERRIRRGHARLALSQNQQSSGAAGPTGKNEEKIQVLTDKIDVLLQQIEELGSEGKVEEAQGMMKLVEQLKEERELLRSTTSTIESFAAQEKQMEVCEVCGAFLIVGDAQSRVDDHLMGKQHMGYAKIKATVEELKEKLRKRTEEPDRDERLKKEKQEREEREKEREREREERERKRRREEEEREKERARDRERRKRSRSRSRHSSRTSDRRCSRSRDHKRSRSRERRRSRSRDRRRSRSHDRSERKHRSRSRDRRRSKSRDRKSYKHRSKSRDREQDRKSKEKEKRGSDDKKSSVKSGSREKQSEDTNTESKESDTKNEVNGTSEDIKSEGDTQSN"}},
  "target": "FLAG-emGFP-tagged C-terminally shortened RNPS1 (Del-C)",
  "assay": "co-IP; FLAG-IP of FLAG-emGFP-tagged RNPS1 constructs from RNase A-treated HEK293 lysate, immunoblot (WB) of the eluate",
  "note": "Results are given in words; binding and its absence hold for the method and conditions named. In cells and extracts the contact can be indirect. Binding calls can cover weak binding; strength is not graded here. Where a sequence is shown, tags or fusion partners need not be part of it.",
  "data": [
    {"binder": "B1", "values": [
      {"measurement": "binding", "value": "binds"}
    ]}
  ]
}
